# Percent effect of library compounds

From ChEMBL document CHEMBL3988442, “University of Dundee, Small-Polar-MMV Screening Library” (2021).

The filed quantity is “Percent Effect” (%). The record does not define 0% and 100%; most values in the screen are far below 50% and negative numbers occur (in some assays of this library far below -100). The compounds are a random part of those screened.

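Whole-parasite assay of Trypanosoma brucei over 72 hours; the read-out is not stated. Tested at 30 µM. Higher reads as stronger inhibition (inferred: compounds with an IC50 in retests scored well above the rest). Values scatter widely below zero; nearly all retest evidence comes from the higher of the two concentrations used. Size under these conditions: about 64,000 compounds, about 940 of them at 50% or above in at least one test.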

compound	Percent Effect
CSCCc1c(-c2ccccc2)ncn1CC(C)(C)N1CCCC1	-22.2%
Cc1nn(C)c2sc(C(=O)N3CCCC(n4ccnc4C)C3)cc12 (stereo not shown)	24.2%
O=C(CC1CC1)N1C[C@@H](O)[C@H](N2CCN(c3ccccc3)CC2)C1	-9.085%
CC(C)(CO)Nc1c(NCc2ccncc2)c(=O)c1=O	-7.08%
CC(=O)c1cccc(NC(=O)N2CCCCC2CN2CCCC2=O)c1 (stereo not shown)	-10.87%
O=C(C1SCCc2sccc21)N1CC(O)C1 (stereo not shown)	-14.56%
Cc1nc(CN2CCN(C(=O)COCc3ccccc3)CC2)no1	-15.44%
CC(C)N(Cc1cccc(F)c1)Cc1nc2c(cnn2C)c(=O)[nH]1	-11.83%
CCCNC(=O)Cn1nc(C)c2cnn(C(C)(C)C)c2c1=O	-4.34%
COc1ccc(CN2CCCN(C(=O)C(C)n3ccnc3)CC2)cc1 (stereo not shown)	10.03%
[H][C@@]12CCC(=O)N(c3ccccc3)[C@]1([H])CCN2C(=O)c1ccoc1	15.07%
O=C(c1ccoc1)N1CCO[C@]2(CCC[C@@H]2COCc2ccncc2)C1	-7.741%
Cn1ccc(CN2CCCC23CCN(Cc2cccc(F)c2)CC3)n1.O=C(O)C(F)(F)F.O=C(O)C(F)(F)F	-80.78%
N#Cc1c[nH]c(C(=O)N(Cc2ccc(O)cc2)CC2CC2)c1	5.539%
Cc1nn(C)c2cnn(CCCNS(=O)(=O)Cc3ccccc3)c12	-53.07%
COc1ccccc1Oc1ncccc1CNC(=O)C(C)CN (stereo not shown)	-8.205%
O=C(CC1CCC2(CC1)CCN(Cc1nccs1)CC2)N1CC=CC1	-39%
CNc1ccnc(N2C[C@@H](C)[C@](O)(C3CC3)C2)n1	-7.142%
CNC(=O)Cc1noc(Cc2ccc3c(c2)CCCC3)n1	0.7459%
CCN1CCOCC2(CCCN(C(=O)c3ccccc3F)C2)C1.O=C(O)C(F)(F)F (stereo not shown)	-73.72%
Cc1cccn2c(CNC(C)CO)cnc12 (stereo not shown)	-14.09%
CS(=O)(=O)CCC(=O)Nc1cnn(-c2ccccc2Cl)c1	44.79%
Clc1ccc(OCCCN2CCOC(Cn3cncn3)C2)cc1 (stereo not shown)	-13.57%
Cc1c[nH]c(C2CCCN(C(=O)CCc3c(C)n[nH]c3C)C2)n1 (stereo not shown)	2.926%
Cc1c(C(=O)N2CCC(c3nc(C)n4ccsc34)CC2)cnn1C	-1.534%
Cc1ccc(CN(CCCN2CCOCC2)Cc2cnn(C)c2)o1.O=C(O)CC(O)(CC(=O)O)C(=O)O	-8.498%
CCOC(=O)c1cnn(-c2cc(Oc3ccccc3C)ncn2)c1N	-67.21%
O=C(N1CCN(c2ccccc2O)CC1)C1(O)Cc2ccccc2C1	-6.302%
CCOCCn1nc(C)cc1C(=O)N1CC[C@](O)(CC)[C@H](O)C1	-36.8%
CCCn1cc(C(=O)N2CCCC(Cc3nccs3)C2)cn1 (stereo not shown)	0.5812%
CCc1ccc(-c2cc(C(F)(F)F)nc(N3CCC(N)CC3)n2)cc1	100.3%
CC(C)c1ccc(OCn2ccc(C(=O)N3CCCC3)n2)cc1	2.143%
CCc1cn[nH]c1C1CCCN(C(=O)c2cc(C(C)C)on2)C1 (stereo not shown)	-6.778%
FC(F)(F)c1ccc(-c2cc(NC3CCNCC3)nc3[nH]ccc23)nc1	-0.8147%
c1ccc(CN2CCC(NCCSc3ncn[nH]3)C2)cc1 (stereo not shown)	-11.03%
N#Cc1ccc(N2CCCN(C(=O)CC3CCCO3)CC2)cc1 (stereo not shown)	11.32%
c1ccc(COc2ccccc2CNC2CCc3ncnn3C2)cc1 (stereo not shown)	-4.558%
CCN(CC)S(=O)(=O)c1ccc(C(=O)NC(C)(C)C)cc1	-18.45%
Cc1ccc(-c2ncc(C(=O)N3CCN4CCCCC4C3)c(O)n2)cc1 (stereo not shown)	-46.11%
CN(C)CC(O)Cn1cc(NCc2ccc(Br)cc2)cn1 (stereo not shown)	-2.75%
CC(NC(=O)c1csnn1)c1ccc(OCC2CC2)c(F)c1 (stereo not shown)	0.6018%
CCOc1ccc2[nH]c(=O)c(CN3CCCC(CO)(CO)C3)cc2c1	-4.578%
CCCn1ncc(C(=O)NC2CCN(C3CCOCC3)CC2)c1C	13.28%
O=C(Nc1nnc[nH]1)C(c1cccc(F)c1)N1CCOCC1 (stereo not shown)	19.99%
CC(=O)c1c(C)nn(S(=O)(=O)c2ccc(C)c(C)c2)c1C	-17.2%
CCN1CC2(CC1=O)CN(C(C)=O)CCN(C(=O)NC(C)C)C2 (stereo not shown)	4.812%
Cc1cc(C)c(CNC(=O)N2CCC(N3CCCC3)CC2)c(=O)[nH]1	-56.18%
O=C(c1ccn(-c2cccc(F)c2)n1)N1CCN(CCO)CC1	-23.06%
COc1ccc(NC(C)c2ccc(C#N)cc2)cc1N1CCCC1=O (stereo not shown)	6.028%
[H][C@@]12CS(=O)(=O)C[C@]1([H])N(C(=O)c1cc(C(F)(F)F)n[nH]1)CCN2CC	-20.08%
N#Cc1c(N2CCCN(C3CCOCC3)CC2)nc2ccccn12	-6.93%
[H][C@@]12CCN(C(=O)COc3ccccc3OC)C[C@]1(COC)CCO2	-9.624%
NC(=O)c1cc(C2CC2)nc2ccc(F)cc12	-11.87%
O=C1CO[C@H](c2ccc(NS(=O)(=O)Cc3ccccc3)cc2)[C@@H](CO)N1	-28.69%
CCCNCc1ccc(-c2ccnc3[nH]ccc23)cc1	63.66%
CN1C(=O)CO[C@H](c2ccc(NC(=O)Nc3ccccc3)cc2)[C@H]1CO	-5.215%
Cc1ccccc1C(=O)NC[C@@H]1CCN(C(=O)C2(O)CCCC2)C[C@H]1O	-50.87%
NC(=O)N1Cc2nccn2CC(Cn2ncccc2=O)C1 (stereo not shown)	-5.861%
CC(CNC(=O)c1cc(Cl)ccc1I)N1CCCC1 (stereo not shown)	12.28%
COc1ccc(C(=O)N(CCO)Cc2ccccc2)c(OC)n1	-38.14%
O=C(O)C(F)(F)F.O=C(O)C(F)(F)F.c1coc(CN2CCCn3c(CN4CCOCC4)nnc3C2)c1	-46.72%
CCS(=O)(=O)Nc1cnn(Cc2cccc(C)c2)c1	-22.75%
COCCN(CCOC)C(=O)Nc1cc(C(F)(F)F)c[nH]c1=O	15.21%
COc1cccc(-c2noc(C3CCN(Cc4cn(C)nc4C)C3)n2)c1 (stereo not shown)	63.09%
[H][C@@]12CN(C(=O)c3ccco3)C[C@]1([H])C(=O)N(Cc1cccc(F)c1)C2	-14.72%
CC(Nc1ccc(C#N)cc1F)c1cccc(S(N)(=O)=O)c1 (stereo not shown)	35.16%
CCCn1c(=O)n(CCC(=O)N(C)Cc2ccc(C)o2)c2ccccc21	-21.38%
O=C(O)C(F)(F)F.O=C(O)C(F)(F)F.[H][C@@]12COC[C@]1([H])[C@@H](OCC1CCN(C)CC1)CN2Cc1c(C)noc1C	-21.15%
O=C(O)C(F)(F)F.[H][C@]12CCN(C(=O)NCc3ccccc3)C[C@@]1([H])OCCN(C)C2	-54.53%
COCCOc1ccnc(-c2noc([C@@H]3CCCN3C3CCC3)n2)c1	-10.04%
O=C(O)C(F)(F)F.[H][C@@]12C[C@H](C(=O)N(C)C)CN(CCOc3ccc(Cl)cc3)[C@]1([H])CCO2	-189.1%
COC[C@H]1CCC[C@]12CN(S(=O)(=O)c1cccs1)CCO2	-68.62%
CS(=O)(=O)N1CCC2(CCN(C(=O)c3cccnc3)CC2)C1.O=C(O)C(F)(F)F	-17.18%
O=c1[nH]c2c(c(=O)n1C1CCCCC1)CCC2Nc1ccccc1Cl (stereo not shown)	39.85%
CC1CCCN(CCCNC(=O)c2ccc(N(C)S(C)(=O)=O)cc2Cl)C1 (stereo not shown)	-6.805%
CC(C)(C)c1nc(CNC(=O)N2CCc3ccccc3C2CO)no1 (stereo not shown)	6.013%
Cn1cc(CN2CCCC3(CCN(c4cccnc4)C3=O)C2)cn1 (stereo not shown)	-35.48%
[H][C@]12CC[C@]([H])(CN(Cc3ccccc3)C1)N(Cc1snnc1C)C2	2.717%
Cc1noc(C(C)N2CCN(Cc3cccc(C#N)c3)CC2)n1 (stereo not shown)	-4.124%
CSCc1noc(CN2CCCCC2CCc2ccc(O)cc2)n1 (stereo not shown)	-4.786%
O=C(c1cnc(C2CC2)nc1O)N1CCN(Cc2ccccc2F)CC1	-2.943%
CCn1cc(S(=O)(=O)N2CCCCCC2c2cc(C)on2)cn1 (stereo not shown)	-16.34%
O=C(COc1ccccc1)N1CCC[C@]2(C[C@@H](OCC3CC3)CO2)C1	-27.86%
Cc1ccc(CN(CCCn2ccnc2)Cc2c[nH]nc2C(C)(C)C)s1.O=C(O)CC(O)(CC(=O)O)C(=O)O	-172%
CCN1CCN(c2nc(C(C)C)nc3c(C)nn(CC)c23)CC1	-22.73%
Cc1nnc(N2CCCC3(CN(Cc4cccnc4)CCO3)C2)o1.O=C(O)C(F)(F)F.O=C(O)C(F)(F)F.O=C(O)C(F)(F)F (stereo not shown)	-0.9941%
CC(C)(C)c1cc(NC(=O)NCCc2nnc3n2CCC3)c(C#N)s1	-32.95%
CCCc1nc(CNC(=O)Cc2csc(C)n2)cs1	-0.03656%
CN(CCC(F)(F)F)C(=O)C1CSCN1C(=O)C(C)(C)C (stereo not shown)	-22.84%

Repeated from the top, 10 entries:

| compound | Percent Effect |
|---|---|
| `CSCCc1c(-c2ccccc2)ncn1CC(C)(C)N1CCCC1` | -22.2% |
| `Cc1nn(C)c2sc(C(=O)N3CCCC(n4ccnc4C)C3)cc12` (stereo not shown) | 24.2% |
| `O=C(CC1CC1)N1C[C@@H](O)[C@H](N2CCN(c3ccccc3)CC2)C1` | -9.085% |
| `CC(C)(CO)Nc1c(NCc2ccncc2)c(=O)c1=O` | -7.08% |
| `CC(=O)c1cccc(NC(=O)N2CCCCC2CN2CCCC2=O)c1` (stereo not shown) | -10.87% |
| `O=C(C1SCCc2sccc21)N1CC(O)C1` (stereo not shown) | -14.56% |
| `Cc1nc(CN2CCN(C(=O)COCc3ccccc3)CC2)no1` | -15.44% |
| `CC(C)N(Cc1cccc(F)c1)Cc1nc2c(cnn2C)c(=O)[nH]1` | -11.83% |
| `CCCNC(=O)Cn1nc(C)c2cnn(C(C)(C)C)c2c1=O` | -4.34% |
| `COc1ccc(CN2CCCN(C(=O)C(C)n3ccnc3)CC2)cc1` (stereo not shown) | 10.03% |